This experiment concerns the target T1, c-terminally YFP tagged PAR4 (Proteinase-Activated Receptor 4) (UniProt Q96RI0).
T1 sequence: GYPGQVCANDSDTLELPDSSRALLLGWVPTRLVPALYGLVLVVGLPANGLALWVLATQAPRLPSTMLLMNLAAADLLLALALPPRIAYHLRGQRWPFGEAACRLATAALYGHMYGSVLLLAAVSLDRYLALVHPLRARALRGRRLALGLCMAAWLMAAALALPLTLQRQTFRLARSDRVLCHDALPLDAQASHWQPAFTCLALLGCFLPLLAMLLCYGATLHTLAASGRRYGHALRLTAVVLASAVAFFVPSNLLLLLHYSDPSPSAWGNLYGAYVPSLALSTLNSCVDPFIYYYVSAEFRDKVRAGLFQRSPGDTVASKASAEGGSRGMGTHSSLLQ
Put plainly: FRET or BRET. On the technique in general: In BRET a luciferase serves as donor, and the signal depends on an acceptor being close.

By UniProt entry, the sequences of proteins in these tests, tags left out.
UniProt P49407: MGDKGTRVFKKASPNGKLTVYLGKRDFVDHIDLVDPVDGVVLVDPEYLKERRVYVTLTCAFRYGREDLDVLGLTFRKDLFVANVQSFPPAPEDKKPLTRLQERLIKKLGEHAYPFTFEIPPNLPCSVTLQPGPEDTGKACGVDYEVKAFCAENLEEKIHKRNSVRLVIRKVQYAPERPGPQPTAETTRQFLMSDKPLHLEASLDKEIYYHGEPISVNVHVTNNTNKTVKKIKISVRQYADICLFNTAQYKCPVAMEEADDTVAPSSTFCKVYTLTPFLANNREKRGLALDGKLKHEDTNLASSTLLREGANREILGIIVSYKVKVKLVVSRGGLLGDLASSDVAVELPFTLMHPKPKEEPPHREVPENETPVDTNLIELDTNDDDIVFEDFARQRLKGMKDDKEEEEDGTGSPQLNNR
UniProt P32121: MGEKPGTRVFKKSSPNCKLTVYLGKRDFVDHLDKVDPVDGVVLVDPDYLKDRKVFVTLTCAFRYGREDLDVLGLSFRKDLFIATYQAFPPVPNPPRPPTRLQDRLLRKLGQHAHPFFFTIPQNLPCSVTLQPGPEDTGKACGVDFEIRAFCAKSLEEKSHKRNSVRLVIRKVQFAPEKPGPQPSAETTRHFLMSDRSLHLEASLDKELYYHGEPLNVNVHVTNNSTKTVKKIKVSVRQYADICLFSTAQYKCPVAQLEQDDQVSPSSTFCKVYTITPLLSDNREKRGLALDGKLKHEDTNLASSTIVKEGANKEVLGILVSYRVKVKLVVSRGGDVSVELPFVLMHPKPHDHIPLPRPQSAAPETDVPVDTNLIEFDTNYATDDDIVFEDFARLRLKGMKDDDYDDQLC

These are yes or no findings as the source states them, for the method shown. Binding seen in cells or lysates may run through a third protein. Some results given as binding are weak or reduced against the parent protein; the word gives no strength. Sequences can lack the tags named with a protein.

Consider “Renilla Luciferase (Rluc) tagged β-arrestin 1 (from UniProt P49407 1-418)”, for which the binding result is “binds”. In the case of “Renilla Luciferase (Rluc) tagged β-arrestin 2 (from UniProt P32121 1-409)”, the binding result is on record as “binds”.
